PubChem BioAssay AID504744 – Drosophila RNAi Screening Center | 2011

- Test: 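Uncover factors, including feedback loops, that control dAkt activation in fly cells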 (primary screen)
- Cell system: Drosophila Kc167 cells
- Reagent: long dsRNA against Drosophila genes, 250 ng dsRNA per well of a 384-well plate
- Duration: 3 days of knock-down, then overnight serum-free starvation before stimulation
- Challenge: bovine insulin at 387 nM for 10 minutes after 12 h without serum
- Detection: 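In-cell antibody fluorescence for phospho-dAkt in each well over DNA-dye signal, with log2 residuals expressed as z-scores adjusted for cell count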
- Rule for the call: 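Hit in the insulin screen when the two-replicate mean z-score is more extreme than plus or minus 2.5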
In all, the deposit lists about 23,000 reagents; below is an unselected part of those that have a named target and a result. Over the whole deposit, 98 (0.43%) got an active call. 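Only hit calls are given; the phospho-dAkt signals, z-scores and hit direction were not deposited.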 Names joined by + are all predicted targets of the reagent.

Gene | amplicon | Call
ck (crinkled) | DRSC03509 | inactive
CG32985 | DRSC02634 | inactive
CG42580 | DRSC20397 | inactive
mRpS26 (mitochondrial ribosomal protein S26) | DRSC10823 | inactive
Tpst (Tyrosylprotein sulfotransferase) | DRSC18989 | inactive
Tpst (Tyrosylprotein sulfotransferase) | DRSC19696 | inactive
Tpst (Tyrosylprotein sulfotransferase) | DRSC19723 | inactive
Tpst (Tyrosylprotein sulfotransferase) | DRSC19724 | inactive
Tpst (Tyrosylprotein sulfotransferase) | DRSC22621 | inactive
hh (hedgehog) | DRSC16965 | inactive
Vang (Van Gogh) | DRSC07570 | inactive
ush (u-shaped) | DRSC00843 | inactive
aly (always early) | DRSC08707 | inactive
aly (always early) | DRSC21784 | inactive
CG43127 | DRSC09039 | inactive
CG12347 | DRSC14502 | inactive
Hpr1 | DRSC12296 | inactive
CG13227 | DRSC06347 | inactive
CG1603 | DRSC06602 | inactive
Frq1 (Frequenin 1) | DRSC19961 | inactive
Nf1 (Neurofibromin 1) | DRSC16758 | inactive
Smug | DRSC15762 | inactive
ste24b (ste24b prenyl protease type I) | DRSC07315 | inactive
Cyp6a2 (Cytochrome P450 6a2) | DRSC05014 | inactive
gcm2 | DRSC03538 | inactive
Su(var)2-HP2 | DRSC06204 | inactive
CG7248 | DRSC10788 | inactive
asun (asunder) | DRSC16733 | inactive
mip130 (Myb-interacting protein 130) | DRSC18575 | active
mtTFB2 (mitochondrial transcription factor B2) | DRSC15519 | inactive
Hsc70-5 (Heat shock protein 70 cognate 5) | DRSC07442 | inactive
CR42745 (retired record) | DRSC13756 | inactive
Abi (Abelson interacting protein) | DRSC14099 | inactive
CG18048 | DRSC12573 | inactive
Use1 (Unconventional SNARE in the ER 1) | DRSC10180 | inactive
gd (gastrulation-defective) | DRSC20336 | inactive
CG14451 | DRSC11708 | inactive
CG17177 | DRSC10257 | inactive
CG32086 | DRSC10586 | inactive
PGRP-SC1b (Peptidoglycan recognition protein SC1b) | DRSC07215 | inactive
Lis-1 (Lissencephaly-1) | DRSC07459 | active
Reg-2 (Rhythmically expressed gene 2) | DRSC08690 | inactive
Arp1 (Actin-related protein 1) | DRSC14118 | inactive
CG2201 | DRSC03721 | inactive
CG13315 | DRSC09986 | inactive
CG31562 (retired record) | DRSC12273 | inactive
CG31562 (retired record) | DRSC12274 | inactive
CG32809 | DRSC18507 | inactive
CG32809 | DRSC18562 | inactive
CG32809 | DRSC18592 | inactive
CG42697 | DRSC05740 | inactive
CG5909 | DRSC15914 | inactive
Myd88 | DRSC06815 | inactive
Rga (Regena) | DRSC12364 | inactive
CG2901 | DRSC18239 | inactive
CG17977 | DRSC06700 | inactive
Cngl (Cyclic nucleotide-gated ion channel-like) | DRSC20318 | inactive
CG3842 | DRSC18326 | inactive
coil (coilin) | DRSC07242 | inactive
Fer2LCH (Ferritin 2 light chain homologue) | DRSC16672 | inactive
Hand | DRSC02656 | inactive
aos (argos) | DRSC11323 | inactive
CG13643 | DRSC14641 | inactive
CG13643 | DRSC14642 | inactive
RasGAP1 (Ras GTPase activating protein 1) | DRSC11172 | inactive
Rpt4R (Regulatory particle triple-A ATPase 4-related) | DRSC10791 | inactive
Phae2 (Phaedra 2) | DRSC02555 | inactive
CG6660 | DRSC16087 | inactive
loco (locomotion defects) | DRSC15202 | inactive
loco (locomotion defects) | DRSC16989 | active
snsl (snustorr snarlik) | DRSC00543 | inactive
Hsp27 (Heat shock protein 27) | DRSC11190 | inactive
cort (cortex) | DRSC02148 | inactive
CG12470 | DRSC18620 | inactive
Dyro (Dpt-YFP repressor by overexpression) | DRSC10598 | inactive
amos (absent MD neurons and olfactory sensilla) | DRSC03484 | inactive
nes (nessy) | DRSC11375 | inactive
CG9467 | DRSC16498 | inactive
DJ-1alpha | DRSC07005 | inactive
CG43894 | DRSC10123 | inactive
Cpr49Ac (Cuticular protein 49Ac) | DRSC07199 | inactive
Spn42Dd (Serpin 42Dd) | DRSC05024 | inactive
Spn42Dd (Serpin 42Dd) | DRSC22060 | inactive
CG15211 | DRSC19657 | inactive
CG5498 | DRSC11608 | inactive
Ak2 (Adenylate kinase 2) | DRSC04043 | inactive
MstProx | DRSC12458 | inactive
MstProx | DRSC12601 | inactive
CG13305 | DRSC09975 | inactive
CG33757 | DRSC05159 | inactive
tsu (tsunagi) | DRSC07265 | inactive
gro (groucho) | DRSC16962 | inactive
CG13321 | DRSC06358 | inactive
l(2)SH0834 (lethal (2) SH0834) | DRSC02854 | inactive
fig (fos intronic gene) | DRSC16270 | inactive
CG1602 | DRSC06601 | inactive

Records above whose target name begins with R or r (4):
Gene | amplicon | Call
Reg-2 (Rhythmically expressed gene 2) | DRSC08690 | inactive
Rga (Regena) | DRSC12364 | inactive
RasGAP1 (Ras GTPase activating protein 1) | DRSC11172 | inactive
Rpt4R (Regulatory particle triple-A ATPase 4-related) | DRSC10791 | inactive

Further reagents follow.
Gene | amplicon | Call
conv (convoluted) | DRSC07213 | inactive
CG34241 | DRSC09157 | inactive
hubl (hug-bell) | DRSC06825 | inactive
Apl (Apollo) | DRSC10350 | inactive
CG33110 | DRSC14694 | inactive
CG33110 | DRSC16137 | inactive
Nmdar1 (NMDA receptor 1) | DRSC12071 | inactive
Nmdar1 (NMDA receptor 1) | DRSC12356 | inactive
Cyp6d2 (Cytochrome P450 6d2) | DRSC04606 | inactive
inaD (inactivation no afterpotential D) | DRSC04694 | inactive
Prx6a (Peroxiredoxin 6a) | DRSC00565 | inactive
Mec2 | DRSC20054 | inactive
sel (seele) | DRSC06232 | inactive
CG13361 | DRSC17896 | inactive
CG33229 | DRSC07863 | inactive
CG34398 | DRSC01052 | inactive
CG34398 | DRSC02510 | inactive
CG34398 | DRSC02511 | inactive
CG34398 | DRSC03228 | inactive
Ance-4 | DRSC07104 | inactive
Jon99Ciii (Jonah 99Ciii) | DRSC16859 | inactive
Strn-Mlck (Stretchin-Mlck) | DRSC05032 | inactive
Strn-Mlck (Stretchin-Mlck) | DRSC05598 | inactive
Strn-Mlck (Stretchin-Mlck) | DRSC07471 | inactive
CG12486 (retired record) | DRSC09888 | inactive
Exo84 (Exocyst 84) | DRSC15965 | inactive
Osi5 (Osiris 5) | DRSC12276 | inactive
CG17249 | DRSC08517 | inactive
128up (upstream of RpIII128) | DRSC05027 | inactive
alpha-Man-IIa (alpha-Mannosidase class II a) | DRSC15393 | inactive
ko (knockout) | DRSC11893 | inactive
Pgd (Phosphogluconate dehydrogenase) | DRSC18697 | inactive
Rpn7 (Regulatory particle non-ATPase 7) | DRSC16841 | inactive
CG5004 | DRSC19929 | inactive
CG5004 | DRSC19930 | inactive
CG5004 | DRSC20123 | inactive
par-1 | DRSC05792 | inactive
par-1 | DRSC06098 | inactive
par-1 | DRSC06616 | inactive
par-1 | DRSC07660 | inactive
par-1 | DRSC07661 | inactive
rad (retired record) | DRSC19687 | inactive
rad (retired record) | DRSC22865 | inactive
E(spl)m8-HLH (Enhancer of split m8, helix-loop-helix) | DRSC16654 | inactive
CG5966 | DRSC18394 | inactive
Eaat2 (Excitatory amino acid transporter 2) | DRSC00032 | inactive
Eaat2 (Excitatory amino acid transporter 2) | DRSC00749 | inactive
CG15483 | DRSC02493 | inactive
Cht7 + tRNA:Cys-GCA-1-4 + tRNA:Lys-CTT-1-13 | DRSC08021 | inactive
TwdlJ (TweedleJ) | DRSC15812 | inactive
Elp6 (Elongator complex protein 6) | DRSC16571 | inactive
CG14245 | DRSC14740 | inactive
CG11977 | DRSC14454 | active
CG12374 | DRSC06143 | inactive
CG34174 | DRSC00101 | inactive
Aplip1 (APPL-interacting protein 1) | DRSC07947 | inactive
Aplip1 (APPL-interacting protein 1) | DRSC08697 | inactive
Aplip1 (APPL-interacting protein 1) | DRSC21587 | inactive
IFT20 + CG10395 | DRSC22660 | inactive
GatA (Glutamyl-tRNA amidotransferase, subunit A) | DRSC16956 | inactive
CG8229 | DRSC07114 | inactive
